Results from PubChem BioAssay AID2685 (National Center for Advancing Translational Sciences (NCATS), 2010).
This is one part of the list. Further columns of the screen follow, without active or inactive calls. Compounds called inactive in the main read-out are mostly missing here. Words in brackets tell the shape of the fitted curve; partial curves, single points and poor fits give uncertain potencies.

Assay: qHTS Assay for Lipid Storage Modulators in Drosophila S3 Cells;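 as to cell number change: cells counted by Cell Tracker Red CMTPX staining in the red channel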
Details: BODIPY lipid droplet fluorescence, 18-24 h; for cell number change: measured here: cell count max response, cells fed with added oleic acid
In short: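 Laser-scanning cytometry quantifies lipid droplet accumulation (500–530 nm total intensity; droplet/cell object ratio) in oleic acid-fed (400 uM added) Drosophila S3 cells treated with a concentration series. 20 uM Triacsin C defined 100% inhibition.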

[1] = measured here: lipid fluorescence (Fed channel) AC50, cells fed with added oleic acid
[2] = measured here: cell number channel AC50, cells fed with added oleic acid

SMILES	cell number change	AC50 [1]	AC50 [2]
Cc1ccc(C2N3CC4([N+](=O)[O-])CN2CC([N+](=O)[O-])(C3)C4(C)C)cc1 (stereo unspecified)	11.6%	0.259 µM [rising, full curve, poor fit]	
COc1ccc(NC(=O)CCNS(=O)(=O)c2cccc3nsnc23)cc1OC	10%	7.31 µM [rising, full curve, poor fit]	
CC(NCc1ccco1)C(=O)N1CCc2ccccc2C1 (stereo unspecified)	-11.3%	0.731 µM [falling, single point]	
CCN1CCN(S(=O)(=O)c2cc(OC)c(Cl)cc2OC)CC1	4.28%	29.1 µM [falling, single point]	
O=c1oc(-c2ccccc2[N+](=O)[O-])nc2ccccc12	-66%	29.1 µM [falling, single point]	29.1 µM [falling, single point]
COc1ccc(CN(CC(=O)NCc2ccccc2)C(=O)CCC(=O)Nc2nccs2)cc1	114%		29.1 µM [rising, single point]
CC1CCCCN1S(=O)(=O)c1ccc(C(=O)Nc2nnc(-c3ccccc3Cl)o2)cc1 (stereo unspecified)	17.4%	1.46 µM [rising, partial curve]	
CCOC(=O)C(C)(C)Sc1nc2c(cnn2-c2ccc(Cl)cc2)c(=O)[nH]1	-41.7%	29.1 µM [falling, single point]	10.3 µM [falling, partial curve, poor fit]
CCN(CC)S(=O)(=O)c1ccc2nc(SC)sc2c1	39%		18.4 µM [rising, single point]
C=CCc1cccc(/C=N/NC(=O)COc2ccc(-n3cnnn3)cc2)c1O		0.116 µM [falling, single point]	
CC(=O)c1ccc(NC(=O)CCc2nnc3ccc(N4CCC5(CC4)OCCO5)nn23)cc1	17.6%	23.1 µM [rising, single point]	0.058 µM [rising, full curve, poor fit]
C=CCOc1ccc(/C=N/NC(=O)C(=O)N2CCCCCC2)cc1OC	8.73%		
O=[N+]([O-])c1cccc(S(=O)(=O)Nc2ccc(-c3ccc(N4CCCC4)nn3)cc2)c1	21.7%	23.1 µM [rising, single point]	
COc1ccc(C(=O)NCc2nnc(SCC(=O)c3ccccc3)o2)cc1	25.5%	18.4 µM [rising, partial curve]	
COc1ccc(S(=O)(=O)N(C)C)cc1NCC(=O)Nc1ccc(Br)c(C)c1	26.3%		1.3 µM [rising, full curve, poor fit]

Not a retest: entries from further up.
SMILES	cell number change	AC50 [1]	AC50 [2]
O=c1oc(-c2ccccc2[N+](=O)[O-])nc2ccccc12	-66%	29.1 µM [falling, single point]	29.1 µM [falling, single point]
COc1ccc(CN(CC(=O)NCc2ccccc2)C(=O)CCC(=O)Nc2nccs2)cc1	114%		29.1 µM [rising, single point]
